The list shows a part of the results. Most values lie at the level of the controls, where differences are scatter.

By UniProt entry, the sequences of proteins in these tests, tags left out. Where a name states a change or a piece, a line headed by the entry shows the natural chain unless it says otherwise.
UniProt O95714: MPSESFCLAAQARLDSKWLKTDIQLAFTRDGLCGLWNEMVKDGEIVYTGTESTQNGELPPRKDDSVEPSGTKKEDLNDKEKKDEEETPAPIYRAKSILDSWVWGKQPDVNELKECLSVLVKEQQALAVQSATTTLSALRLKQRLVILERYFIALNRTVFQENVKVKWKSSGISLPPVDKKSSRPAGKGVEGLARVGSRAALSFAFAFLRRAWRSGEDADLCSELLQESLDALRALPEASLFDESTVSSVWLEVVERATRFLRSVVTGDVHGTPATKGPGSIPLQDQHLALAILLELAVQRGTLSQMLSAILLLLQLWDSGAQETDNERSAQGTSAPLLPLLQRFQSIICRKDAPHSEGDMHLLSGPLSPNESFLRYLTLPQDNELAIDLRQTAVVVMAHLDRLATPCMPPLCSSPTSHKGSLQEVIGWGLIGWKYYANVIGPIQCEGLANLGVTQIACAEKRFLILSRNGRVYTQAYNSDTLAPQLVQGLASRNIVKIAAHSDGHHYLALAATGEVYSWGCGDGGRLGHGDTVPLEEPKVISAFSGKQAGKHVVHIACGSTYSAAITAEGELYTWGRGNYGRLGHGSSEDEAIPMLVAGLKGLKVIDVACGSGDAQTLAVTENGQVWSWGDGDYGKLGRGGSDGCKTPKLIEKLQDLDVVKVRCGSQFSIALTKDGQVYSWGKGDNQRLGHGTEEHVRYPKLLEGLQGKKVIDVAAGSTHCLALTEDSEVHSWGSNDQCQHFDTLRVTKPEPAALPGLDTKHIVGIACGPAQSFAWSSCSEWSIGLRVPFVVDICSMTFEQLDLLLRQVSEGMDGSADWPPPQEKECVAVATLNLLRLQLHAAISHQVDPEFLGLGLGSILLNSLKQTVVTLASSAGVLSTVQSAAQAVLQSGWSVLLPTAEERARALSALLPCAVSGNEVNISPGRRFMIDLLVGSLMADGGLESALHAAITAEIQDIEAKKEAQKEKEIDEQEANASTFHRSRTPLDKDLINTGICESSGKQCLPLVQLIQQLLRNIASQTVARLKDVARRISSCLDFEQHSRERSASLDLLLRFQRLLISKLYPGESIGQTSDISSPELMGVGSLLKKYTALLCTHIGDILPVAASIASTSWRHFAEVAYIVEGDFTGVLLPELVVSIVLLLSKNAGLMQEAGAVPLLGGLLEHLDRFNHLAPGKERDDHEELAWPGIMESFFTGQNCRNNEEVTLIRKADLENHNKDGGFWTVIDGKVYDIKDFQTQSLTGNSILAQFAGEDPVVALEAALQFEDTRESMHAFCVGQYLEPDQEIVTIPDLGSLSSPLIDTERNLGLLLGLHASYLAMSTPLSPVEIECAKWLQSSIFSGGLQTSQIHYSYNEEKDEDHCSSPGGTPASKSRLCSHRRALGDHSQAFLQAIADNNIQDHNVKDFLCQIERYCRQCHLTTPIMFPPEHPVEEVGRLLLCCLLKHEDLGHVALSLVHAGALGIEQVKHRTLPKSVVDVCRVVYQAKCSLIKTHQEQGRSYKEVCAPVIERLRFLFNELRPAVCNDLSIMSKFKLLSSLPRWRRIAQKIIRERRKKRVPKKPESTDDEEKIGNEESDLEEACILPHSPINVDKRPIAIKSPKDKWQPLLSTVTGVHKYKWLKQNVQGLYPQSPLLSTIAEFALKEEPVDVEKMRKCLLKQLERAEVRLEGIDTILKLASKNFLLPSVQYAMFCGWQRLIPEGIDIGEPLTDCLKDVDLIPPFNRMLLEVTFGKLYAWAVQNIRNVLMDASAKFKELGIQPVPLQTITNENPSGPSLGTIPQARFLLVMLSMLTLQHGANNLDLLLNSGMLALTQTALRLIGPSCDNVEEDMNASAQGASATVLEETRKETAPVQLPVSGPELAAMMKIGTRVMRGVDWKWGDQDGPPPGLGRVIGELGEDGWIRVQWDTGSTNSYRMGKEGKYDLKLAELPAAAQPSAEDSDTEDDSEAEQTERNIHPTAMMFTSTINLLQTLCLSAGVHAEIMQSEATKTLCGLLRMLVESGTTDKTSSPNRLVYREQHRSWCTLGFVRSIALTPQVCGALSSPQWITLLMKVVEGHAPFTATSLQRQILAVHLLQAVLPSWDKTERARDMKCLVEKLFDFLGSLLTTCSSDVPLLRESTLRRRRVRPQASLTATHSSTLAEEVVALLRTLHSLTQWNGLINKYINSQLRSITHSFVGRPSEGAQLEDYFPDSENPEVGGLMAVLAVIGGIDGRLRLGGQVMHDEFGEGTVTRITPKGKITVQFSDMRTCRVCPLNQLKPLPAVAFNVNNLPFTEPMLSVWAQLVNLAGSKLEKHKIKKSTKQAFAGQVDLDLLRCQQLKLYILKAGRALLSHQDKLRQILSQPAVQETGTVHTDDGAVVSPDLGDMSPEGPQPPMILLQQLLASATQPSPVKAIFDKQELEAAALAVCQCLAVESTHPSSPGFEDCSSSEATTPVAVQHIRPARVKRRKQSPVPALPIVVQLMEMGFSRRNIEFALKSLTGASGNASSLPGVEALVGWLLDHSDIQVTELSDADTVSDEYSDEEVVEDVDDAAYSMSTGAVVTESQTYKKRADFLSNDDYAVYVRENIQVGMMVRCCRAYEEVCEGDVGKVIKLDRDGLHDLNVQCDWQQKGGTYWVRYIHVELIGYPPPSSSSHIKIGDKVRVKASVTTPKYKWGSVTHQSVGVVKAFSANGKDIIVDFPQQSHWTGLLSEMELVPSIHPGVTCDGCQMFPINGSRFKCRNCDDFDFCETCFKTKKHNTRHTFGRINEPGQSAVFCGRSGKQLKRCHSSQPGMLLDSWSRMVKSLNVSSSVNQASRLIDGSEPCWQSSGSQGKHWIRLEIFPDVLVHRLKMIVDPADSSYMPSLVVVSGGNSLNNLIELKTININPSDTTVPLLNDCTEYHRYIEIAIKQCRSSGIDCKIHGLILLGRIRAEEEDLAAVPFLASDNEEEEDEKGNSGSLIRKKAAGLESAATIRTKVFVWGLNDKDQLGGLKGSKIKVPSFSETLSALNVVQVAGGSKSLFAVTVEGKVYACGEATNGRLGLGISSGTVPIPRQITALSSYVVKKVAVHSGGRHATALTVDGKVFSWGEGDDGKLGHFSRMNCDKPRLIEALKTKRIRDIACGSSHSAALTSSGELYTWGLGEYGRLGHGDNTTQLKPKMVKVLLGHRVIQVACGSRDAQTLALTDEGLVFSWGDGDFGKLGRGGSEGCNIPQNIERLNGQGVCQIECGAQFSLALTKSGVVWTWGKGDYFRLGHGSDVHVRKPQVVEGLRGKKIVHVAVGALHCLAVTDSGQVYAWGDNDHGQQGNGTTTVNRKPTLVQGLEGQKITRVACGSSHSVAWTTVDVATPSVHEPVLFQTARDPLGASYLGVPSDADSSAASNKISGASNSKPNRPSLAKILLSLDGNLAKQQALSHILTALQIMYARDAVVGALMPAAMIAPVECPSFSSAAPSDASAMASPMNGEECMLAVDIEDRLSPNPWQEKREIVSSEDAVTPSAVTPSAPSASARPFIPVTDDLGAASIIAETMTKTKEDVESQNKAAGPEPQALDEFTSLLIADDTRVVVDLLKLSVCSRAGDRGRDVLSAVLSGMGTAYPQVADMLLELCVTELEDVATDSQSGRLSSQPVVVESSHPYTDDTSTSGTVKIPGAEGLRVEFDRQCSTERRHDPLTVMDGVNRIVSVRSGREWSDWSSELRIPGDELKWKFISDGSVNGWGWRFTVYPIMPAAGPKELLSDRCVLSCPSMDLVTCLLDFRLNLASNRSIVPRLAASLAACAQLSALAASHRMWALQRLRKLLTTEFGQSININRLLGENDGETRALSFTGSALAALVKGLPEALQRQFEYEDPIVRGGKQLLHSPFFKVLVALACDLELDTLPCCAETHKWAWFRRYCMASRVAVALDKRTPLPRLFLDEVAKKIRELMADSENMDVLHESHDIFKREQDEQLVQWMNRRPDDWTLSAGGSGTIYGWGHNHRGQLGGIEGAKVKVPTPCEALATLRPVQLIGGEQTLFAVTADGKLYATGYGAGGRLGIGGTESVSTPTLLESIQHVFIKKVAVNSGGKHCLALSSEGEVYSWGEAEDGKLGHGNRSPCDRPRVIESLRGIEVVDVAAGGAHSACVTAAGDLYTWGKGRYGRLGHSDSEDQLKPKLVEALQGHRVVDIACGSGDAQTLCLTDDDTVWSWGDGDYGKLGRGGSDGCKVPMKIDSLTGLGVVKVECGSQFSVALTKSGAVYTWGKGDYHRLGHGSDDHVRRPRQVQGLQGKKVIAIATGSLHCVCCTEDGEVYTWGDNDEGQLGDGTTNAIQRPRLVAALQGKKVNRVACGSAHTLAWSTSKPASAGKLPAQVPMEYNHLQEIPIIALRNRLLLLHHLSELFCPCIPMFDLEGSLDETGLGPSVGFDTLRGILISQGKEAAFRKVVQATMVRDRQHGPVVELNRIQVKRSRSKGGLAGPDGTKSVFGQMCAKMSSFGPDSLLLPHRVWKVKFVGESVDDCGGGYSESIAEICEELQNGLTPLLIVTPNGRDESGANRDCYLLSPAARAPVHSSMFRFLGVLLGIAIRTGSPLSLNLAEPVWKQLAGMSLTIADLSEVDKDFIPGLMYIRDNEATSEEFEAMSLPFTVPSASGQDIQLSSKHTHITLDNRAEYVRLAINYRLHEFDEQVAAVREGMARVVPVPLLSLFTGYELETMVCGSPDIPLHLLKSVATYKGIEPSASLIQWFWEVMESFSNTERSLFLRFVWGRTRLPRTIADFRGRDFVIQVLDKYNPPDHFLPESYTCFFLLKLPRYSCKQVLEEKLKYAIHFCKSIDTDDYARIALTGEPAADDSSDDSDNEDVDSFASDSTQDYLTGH
UniProt O75718: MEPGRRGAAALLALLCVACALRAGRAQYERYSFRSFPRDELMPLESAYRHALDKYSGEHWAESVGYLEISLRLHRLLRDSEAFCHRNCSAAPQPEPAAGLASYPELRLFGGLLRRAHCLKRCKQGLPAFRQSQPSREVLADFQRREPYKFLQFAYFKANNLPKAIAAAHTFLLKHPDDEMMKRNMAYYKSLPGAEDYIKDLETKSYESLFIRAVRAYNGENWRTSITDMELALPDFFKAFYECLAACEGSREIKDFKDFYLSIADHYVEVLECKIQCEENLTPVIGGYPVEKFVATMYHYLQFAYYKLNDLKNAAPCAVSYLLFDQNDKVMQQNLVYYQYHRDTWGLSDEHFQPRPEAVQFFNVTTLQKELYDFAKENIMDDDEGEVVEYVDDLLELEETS
UniProt O95219: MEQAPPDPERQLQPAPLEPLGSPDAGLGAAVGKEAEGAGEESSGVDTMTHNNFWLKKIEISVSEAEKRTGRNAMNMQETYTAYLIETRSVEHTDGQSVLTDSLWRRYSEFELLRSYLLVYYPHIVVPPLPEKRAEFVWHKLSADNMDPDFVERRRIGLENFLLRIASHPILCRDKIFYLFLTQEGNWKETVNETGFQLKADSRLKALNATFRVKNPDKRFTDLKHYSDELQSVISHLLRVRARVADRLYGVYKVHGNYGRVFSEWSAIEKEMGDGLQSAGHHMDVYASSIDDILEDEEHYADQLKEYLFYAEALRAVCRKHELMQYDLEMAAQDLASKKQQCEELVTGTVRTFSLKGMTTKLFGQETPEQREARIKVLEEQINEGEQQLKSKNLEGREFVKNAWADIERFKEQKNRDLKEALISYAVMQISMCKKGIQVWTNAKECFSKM
UniProt O75616: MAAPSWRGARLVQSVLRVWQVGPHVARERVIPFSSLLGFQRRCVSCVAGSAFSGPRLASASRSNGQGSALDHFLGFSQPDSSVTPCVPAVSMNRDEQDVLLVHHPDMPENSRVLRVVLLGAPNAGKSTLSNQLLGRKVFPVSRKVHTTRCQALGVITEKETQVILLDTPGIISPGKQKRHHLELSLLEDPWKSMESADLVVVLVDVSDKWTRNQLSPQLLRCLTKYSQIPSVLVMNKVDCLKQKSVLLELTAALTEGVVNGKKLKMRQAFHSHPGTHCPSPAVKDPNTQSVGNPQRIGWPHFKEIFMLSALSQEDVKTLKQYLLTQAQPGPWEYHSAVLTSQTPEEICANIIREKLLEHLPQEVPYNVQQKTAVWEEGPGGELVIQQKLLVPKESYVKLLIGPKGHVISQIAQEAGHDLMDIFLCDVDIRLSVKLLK
UniProt O95626: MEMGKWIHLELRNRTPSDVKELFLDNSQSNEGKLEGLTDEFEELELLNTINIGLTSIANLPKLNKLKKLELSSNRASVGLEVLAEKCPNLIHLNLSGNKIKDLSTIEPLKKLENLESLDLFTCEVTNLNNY
UniProt P00746, whole entry: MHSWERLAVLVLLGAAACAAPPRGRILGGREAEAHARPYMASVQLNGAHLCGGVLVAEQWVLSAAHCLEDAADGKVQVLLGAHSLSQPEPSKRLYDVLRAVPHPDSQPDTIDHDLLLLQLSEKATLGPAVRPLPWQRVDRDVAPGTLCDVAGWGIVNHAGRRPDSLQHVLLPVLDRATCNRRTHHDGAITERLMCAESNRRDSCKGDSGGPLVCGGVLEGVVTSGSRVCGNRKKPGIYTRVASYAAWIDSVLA

Compound in this assay: Cc1nc(Nc2ncc(C(=O)Nc3c(C)cccc3Cl)s2)cc(N2CCN(CCO)CC2)n1 [dasatinib]
Put plainly: log2 fold change of tryptic peptide abundance, ligand vs vehicle (limited proteolysis) (log2 ratio); higher = more trypsin-susceptible (destabilized). Particulars: ligand concentration: 5 uM; sample: K562 cleared lysate.
Turning to “E2F6 (peptide sequence: KLPSLLLDPTEETVR, peptide start residue: 9) (UniProt O75461)”, the log2 fold change is -0.286.

For “UniProt O95759 (peptide sequence: ISLWNDHFVEYGR, peptide start residue: 476)”, the log2 fold change was -0.0611.

Take “HERC2 (peptide sequence: KADLENHNK, peptide start residue: 1212) (UniProt O95714)”: the log2 fold change was -0.689.

“MICAL2 (peptide sequence: FEESTRNPSLMK, peptide start residue: 726) (UniProt O94851)”: the log2 fold change is -0.299.

Take “CRTAP (peptide sequence: FLQFAYFK, peptide start residue: 150) (UniProt O75718)”: the log2 fold change was -0.116.

“PGLS (peptide sequence: IVAPISDSPKPPPQR, peptide start residue: 171) (UniProt O95336)”: the log2 fold change was -0.234.

For “UniProt O95670 (peptide sequence: ASQSQGIQQLLQAEKR, peptide start residue: 2)”, the log2 fold change is -0.207.

In the case of “AGFG2 (peptide sequence: STQPPPHSSVK, peptide start residue: 209) (UniProt O95081)”, the log2 fold change was 0.19.

Take “SNX4 (peptide sequence: YSEFELLR, peptide start residue: 107) (UniProt O95219)”: the log2 fold change is -0.116.

As for “UniProt O95568 (peptide sequence: ENFPGENIVSK, peptide start residue: 139)”, the log2 fold change was 0.124.

In the case of “TOX4 (peptide sequence: TVVVEAGKK, peptide start residue: 200) (UniProt O94842)”, the log2 fold change was -0.13.

For the target “ARL6IP5 (peptide sequence: MEGIGLKR, peptide start residue: 152) (UniProt O75915)”, the log2 fold change was -0.545.

With “UniProt O95049 (peptide sequence: AVGVGPGSSAGSNAR, peptide start residue: 557)”, the log2 fold change was -0.422.

For “TRMU (peptide sequence: TDHPALYR, peptide start residue: 295) (UniProt O75648)”, the log2 fold change came out at 0.383.

As for “UniProt O95319 (peptide sequence: KAALEAQNALHNIK, peptide start residue: 94)”, the log2 fold change came out at 0.312.

Regarding “BCL10 (peptide sequence: KDALENLR, peptide start residue: 18) (UniProt O95999)”, the log2 fold change turned out to be 0.207.

With “SKAP2 (peptide sequence: IYQFTAASPK, peptide start residue: 196) (UniProt O75563)”, the log2 fold change was -0.197.

On to “WDR47 (peptide sequence: RPQSADAYMTR, peptide start residue: 301) (UniProt O94967)”, for which the log2 fold change was -0.194.

As to “UniProt O94875 (peptide sequence: CDDGWFVGTSRR, peptide start residue: 1264)”, the log2 fold change was 0.264.

“ERAL1 (peptide sequence: IGWPHFK, peptide start residue: 297) (UniProt O75616)”: the log2 fold change was 0.34.

“CD2BP2 (peptide sequence: ETVAGALRR, peptide start residue: 169) (UniProt O95400)”: the log2 fold change is -0.338.

In the case of “UniProt O95626 (peptide sequence: IKDLSTIEPLK, peptide start residue: 100)”, the log2 fold change was found to be 0.0524.

On to “SAP30 (peptide sequence: AAGNASFSKR, peptide start residue: 79) (UniProt O75446)”, for which the log2 fold change was -0.135.

For “NDUFC2 (peptide sequence: LHPEDFPEEDKK, peptide start residue: 95) (UniProt O95298)”, the log2 fold change is -0.272.

Turning to “UniProt O94768 (peptide sequence: AEILHEIAVLELAK, peptide start residue: 75)”, the log2 fold change was determined as 0.148.

In the case of “UniProt P00746 (peptide sequence: THHDGAITER, peptide start residue: 183)”, the log2 fold change came out at 0.395.

Take “PPP1R15A (peptide sequence: APLSPSLLIR, peptide start residue: 140) (UniProt O75807)”: the log2 fold change is 0.548.

The values are drawn from the supplement of paper PMC12819154, “High-throughput peptide-centric local stability assay extends protein–ligand identification to membrane proteins, tissues and bacteria” (Nature Structural & Molecular Biology, 2025).
